{"source": "the supplement of paper PMC8728848", "assay_in_all_cases": "glycan array binding signal (z-score within array); higher = stronger binding", "settings_in_all_cases": "glycan notation: IUPAC condensed, linker removed", "key": {"[1]": {"biological_target": "Fuc(a1-2)[Gal(a1-3)]Gal(b1-4)GlcNAc(b1-2)Man(a1-3)[Fuc(a1-2)[Gal(a1-3)]Gal(b1-4)GlcNAc(b1-2)Man(a1-6)]Man(b1-4)GlcNAc(b1-4)[Fuc(a1-6)]GlcNAc", "in_short": "(§1)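 Arrays were curated from the Consortium for Functional Glycomics database, 3228 in total, and kept only where the protein sequence was available. Binding is expressed as a within-array Z-score. This score was averaged across arrays of the same protein sequence at different concentrations or buffers and across linkers, and negative values can be read as non-binding.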"}, "[2]": {"biological_target": "Fuc(a1-2)[Gal(a1-3)]Gal(b1-4)GlcNAc(b1-3)GalNAc", "in_short": "as §1"}, "[3]": {"biological_target": "Fuc(a1-2)[Gal(a1-3)]Gal(b1-4)GlcNAc(b1-3)[Fuc(a1-2)[Gal(a1-3)]Gal(b1-4)GlcNAc(b1-6)]GalNAc", "in_short": "as §1"}, "[4]": {"biological_target": "Fuc(a1-2)[Gal(a1-3)]Gal(b1-4)GlcNAc(b1-6)GalNAc", "in_short": "as §1"}, "[5]": {"biological_target": "Fuc(a1-2)[Gal(a1-3)]Gal(b1-4)[Fuc(a1-3)]Glc", "in_short": "as §1"}, "[6]": {"biological_target": "Fuc(a1-2)[Gal(a1-3)]Gal(b1-4)[Fuc(a1-3)]GlcNAc", "in_short": "as §1"}, "[7]": {"biological_target": "Fuc(a1-2)[Gal(a1-3)]Gal(b1-4)[Fuc(a1-3)]GlcNAc(b1-3)GalNAc", "in_short": "as §1"}, "[8]": {"biological_target": "Fuc(a1-2)[Gal(a1-4)]Gal(b1-4)GlcNAc", "in_short": "as §1"}, "[9]": {"biological_target": "Fuc(a1-2)[GalNAc(a1-3)]Gal", "in_short": "as §1"}, "[10]": {"biological_target": "Fuc(a1-2)[GalNAc(a1-3)]Gal(b1-3)GalNAc(a1-3)[Fuc(a1-2)]Gal(b1-4)GlcNAc", "in_short": "as §1"}, "[11]": {"biological_target": "Fuc(a1-2)[GalNAc(a1-3)]Gal(b1-3)GalNAc(b1-3)Gal(a1-4)Gal(b1-4)Glc", "in_short": "as §1"}, "[12]": {"biological_target": "Fuc(a1-2)[GalNAc(a1-3)]Gal(b1-3)GlcNAc", "in_short": "as §1"}, "[13]": {"biological_target": "Fuc(a1-2)[GalNAc(a1-3)]Gal(b1-3)GlcNAc(b1-2)Man(a1-3)[Fuc(a1-2)[GalNAc(a1-3)]Gal(b1-3)GlcNAc(b1-2)Man(a1-6)]Man(b1-4)GlcNAc(b1-4)GlcNAc", "in_short": "as §1"}, "[14]": {"biological_target": "Fuc(a1-2)[GalNAc(a1-3)]Gal(b1-3)GlcNAc(b1-2)Man(a1-3)[Fuc(a1-2)[GalNAc(a1-3)]Gal(b1-3)GlcNAc(b1-2)Man(a1-6)]Man(b1-4)GlcNAc(b1-4)[Fuc(a1-6)]GlcNAc", "in_short": "as §1"}, "[15]": {"biological_target": "Fuc(a1-2)[GalNAc(a1-3)]Gal(b1-3)GlcNAc(b1-3)GalNAc", "in_short": "as §1"}, "[16]": {"biological_target": "Fuc(a1-2)[GalNAc(a1-3)]Gal(b1-3)GlcNAc(b1-6)GalNAc", "in_short": "as §1"}, "[17]": {"biological_target": "Fuc(a1-2)[GalNAc(a1-3)]Gal(b1-4)Glc", "in_short": "as §1"}, "[18]": {"biological_target": "Fuc(a1-2)[GalNAc(a1-3)]Gal(b1-4)GlcNAc", "in_short": "as §1"}, "[19]": {"biological_target": "Fuc(a1-2)[GalNAc(a1-3)]Gal(b1-4)GlcNAc(b1-2)Man", "in_short": "as §1"}, "[20]": {"biological_target": "Fuc(a1-2)[GalNAc(a1-3)]Gal(b1-4)GlcNAc(b1-2)Man(a1-3)[Fuc(a1-2)[GalNAc(a1-3)]Gal(b1-4)GlcNAc(b1-2)Man(a1-6)]Man(b1-4)GlcNAc(b1-4)GlcNAc", "in_short": "as §1"}, "[21]": {"biological_target": "Fuc(a1-2)[GalNAc(a1-3)]Gal(b1-4)GlcNAc(b1-2)Man(a1-3)[Fuc(a1-2)[GalNAc(a1-3)]Gal(b1-4)GlcNAc(b1-2)Man(a1-6)]Man(b1-4)GlcNAc(b1-4)[Fuc(a1-6)]GlcNAc", "in_short": "as §1"}, "[22]": {"biological_target": "Fuc(a1-2)[GalNAc(a1-3)]Gal(b1-4)GlcNAc(b1-3)Gal(b1-4)GlcNAc", "in_short": "as §1"}, "[23]": {"biological_target": "Fuc(a1-2)[GalNAc(a1-3)]Gal(b1-4)GlcNAc(b1-3)Gal(b1-4)GlcNAc(b1-3)Gal(b1-4)GlcNAc", "in_short": "as §1"}, "[24]": {"biological_target": "Fuc(a1-2)[GalNAc(a1-3)]Gal(b1-4)GlcNAc(b1-3)GalNAc", "in_short": "as §1"}, "[25]": {"biological_target": "Fuc(a1-2)[GalNAc(a1-3)]Gal(b1-4)GlcNAc(b1-3)[Fuc(a1-2)[GalNAc(a1-3)]Gal(b1-4)GlcNAc(b1-6)]GalNAc", "in_short": "as §1"}, "[26]": {"biological_target": "Fuc(a1-2)[GalNAc(a1-3)]Gal(b1-4)GlcNAc(b1-6)GalNAc", "in_short": "as §1"}, "[27]": {"biological_target": "Fuc(a1-2)[GalNAc(a1-3)]Gal(b1-4)[Fuc(a1-3)]GlcNAc", "in_short": "as §1"}, "[28]": {"biological_target": "Fuc(a1-2)[GalNAc(a1-3)]Gal(b1-4)[Fuc(a1-3)]GlcNAc(b1-3)GalNAc", "in_short": "as §1"}, "[29]": {"biological_target": "Fuc(a1-2)[GalNAc(a1-4)]Gal(b1-4)GlcNAc", "in_short": "as §1"}, "[30]": {"biological_target": "Fuc(a1-2)[GalNAc(b1-3)]Gal", "in_short": "as §1"}}, "note": "The list shows a part of the results."}
{"binder": "SJCP1084 (Schistosoma japonicum) (protein) MRIINLVIISTALLLINLLQTKSQANGEDTKNGTPDDPGLTKSTELKVEVQALLKDKKTNMRVKWNENLLDNTKPEYHNLRDEACELLLQIVRSVVPLSQDDGECKDVTFTKYVVGTKDGAVNVKLTITFKDSVAINQKPMDLKLKLENDFKNLQSESTLKATKPTFTVKVEKRLIPISKPQTTPPTTAKNDASKENVGDIGGEDSTVPTAAPATAASANEEKDEGDKDNKDSQHPNVLTSNVNDRNLIIALVALMILAIGVALTAAVKQR", "values": [{"measurement": "glycan array binding signal (z-score)", "setting": "[1]", "value": 0.955}, {"measurement": "glycan array binding signal (z-score)", "setting": "[2]", "value": -0.455}, {"measurement": "glycan array binding signal (z-score)", "setting": "[3]", "value": 0.833}, {"measurement": "glycan array binding signal (z-score)", "setting": "[4]", "value": -1.88}, {"measurement": "glycan array binding signal (z-score)", "setting": "[5]", "value": -0.164}, {"measurement": "glycan array binding signal (z-score)", "setting": "[6]", "value": 0.332}, {"measurement": "glycan array binding signal (z-score)", "setting": "[7]", "value": -0.005}, {"measurement": "glycan array binding signal (z-score)", "setting": "[8]", "value": 2.61}, {"measurement": "glycan array binding signal (z-score)", "setting": "[9]", "value": 0.405}, {"measurement": "glycan array binding signal (z-score)", "setting": "[10]", "value": -0.717}, {"measurement": "glycan array binding signal (z-score)", "setting": "[11]", "value": -1.18}, {"measurement": "glycan array binding signal (z-score)", "setting": "[12]", "value": 0.643}, {"measurement": "glycan array binding signal (z-score)", "setting": "[13]", "value": 0.364}, {"measurement": "glycan array binding signal (z-score)", "setting": "[14]", "value": -0.324}, {"measurement": "glycan array binding signal (z-score)", "setting": "[15]", "value": 2.68}, {"measurement": "glycan array binding signal (z-score)", "setting": "[16]", "value": -0.94}, {"measurement": "glycan array binding signal (z-score)", "setting": "[17]", "value": -0.402}, {"measurement": "glycan array binding signal (z-score)", "setting": "[18]", "value": -0.655}, {"measurement": "glycan array binding signal (z-score)", "setting": "[19]", "value": -0.749}, {"measurement": "glycan array binding signal (z-score)", "setting": "[20]", "value": 0.359}, {"measurement": "glycan array binding signal (z-score)", "setting": "[21]", "value": -0.506}, {"measurement": "glycan array binding signal (z-score)", "setting": "[22]", "value": -0.749}, {"measurement": "glycan array binding signal (z-score)", "setting": "[23]", "value": 0.783}, {"measurement": "glycan array binding signal (z-score)", "setting": "[24]", "value": -1.18}, {"measurement": "glycan array binding signal (z-score)", "setting": "[25]", "value": 0.142}, {"measurement": "glycan array binding signal (z-score)", "setting": "[26]", "value": -1.16}, {"measurement": "glycan array binding signal (z-score)", "setting": "[27]", "value": 0.073}, {"measurement": "glycan array binding signal (z-score)", "setting": "[28]", "value": -0.545}, {"measurement": "glycan array binding signal (z-score)", "setting": "[29]", "value": -0.296}, {"measurement": "glycan array binding signal (z-score)", "setting": "[30]", "value": -0.223}]}
